Experimental data reported in PMC7235043.
These are yes or no findings as the source states them, for the method shown. In cells and extracts the contact can be indirect. Some binding calls cover weakened binding; strength is not graded here.

Amino acid sequences for entries named in this document (tags omitted).
UniProt O09106: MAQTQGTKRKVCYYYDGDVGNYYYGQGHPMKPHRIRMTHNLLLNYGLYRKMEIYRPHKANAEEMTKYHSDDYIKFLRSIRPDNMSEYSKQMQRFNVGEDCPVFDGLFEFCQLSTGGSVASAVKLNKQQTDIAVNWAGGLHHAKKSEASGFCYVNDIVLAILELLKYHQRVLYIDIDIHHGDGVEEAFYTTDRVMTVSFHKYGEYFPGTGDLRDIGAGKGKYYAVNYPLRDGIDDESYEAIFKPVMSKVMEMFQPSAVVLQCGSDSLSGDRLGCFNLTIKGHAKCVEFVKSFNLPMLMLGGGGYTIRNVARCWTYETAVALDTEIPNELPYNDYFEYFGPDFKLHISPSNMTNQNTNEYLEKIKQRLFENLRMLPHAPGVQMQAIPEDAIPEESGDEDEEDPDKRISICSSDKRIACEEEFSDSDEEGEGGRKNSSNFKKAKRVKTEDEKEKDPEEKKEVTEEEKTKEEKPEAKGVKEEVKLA
UniProt O08760: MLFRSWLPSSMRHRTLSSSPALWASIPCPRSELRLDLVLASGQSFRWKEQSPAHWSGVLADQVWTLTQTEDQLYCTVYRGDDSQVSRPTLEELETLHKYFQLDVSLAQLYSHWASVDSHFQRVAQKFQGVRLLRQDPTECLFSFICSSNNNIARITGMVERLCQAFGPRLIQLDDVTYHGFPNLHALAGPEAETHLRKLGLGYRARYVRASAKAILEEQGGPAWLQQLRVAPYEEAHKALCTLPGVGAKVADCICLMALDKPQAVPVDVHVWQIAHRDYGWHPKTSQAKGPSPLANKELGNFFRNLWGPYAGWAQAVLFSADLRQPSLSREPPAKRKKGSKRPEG

Molecular target: Histone deacetylase 1 (HDAC1) (mouse (endogenous in cortex and hippocampus)) (UniProt O09106)
Assay: co-IP; HDAC1 immunoprecipitated from cortical and hippocampal nuclear extracts of wild-type mice (cortex: 2-month-old, n = 2); IP buffer 50 mM Tris-HCl pH 8.0, 150 mM NaCl, 0.5% Triton X-100, 0.1% NP-40; 5 ug antibody overnight at 4 C, Protein A Sepharose; OGG1 detected by western blot

binding: binds
Substance: 8-oxoguanine DNA glycosylase 1 (OGG1) (from UniProt O08760 1-345) (enzyme)
